One substance from PMC8494447 can be followed below.

Chains of the proteins cited; added tags and fusions are not shown.
UniProt Q9Y572: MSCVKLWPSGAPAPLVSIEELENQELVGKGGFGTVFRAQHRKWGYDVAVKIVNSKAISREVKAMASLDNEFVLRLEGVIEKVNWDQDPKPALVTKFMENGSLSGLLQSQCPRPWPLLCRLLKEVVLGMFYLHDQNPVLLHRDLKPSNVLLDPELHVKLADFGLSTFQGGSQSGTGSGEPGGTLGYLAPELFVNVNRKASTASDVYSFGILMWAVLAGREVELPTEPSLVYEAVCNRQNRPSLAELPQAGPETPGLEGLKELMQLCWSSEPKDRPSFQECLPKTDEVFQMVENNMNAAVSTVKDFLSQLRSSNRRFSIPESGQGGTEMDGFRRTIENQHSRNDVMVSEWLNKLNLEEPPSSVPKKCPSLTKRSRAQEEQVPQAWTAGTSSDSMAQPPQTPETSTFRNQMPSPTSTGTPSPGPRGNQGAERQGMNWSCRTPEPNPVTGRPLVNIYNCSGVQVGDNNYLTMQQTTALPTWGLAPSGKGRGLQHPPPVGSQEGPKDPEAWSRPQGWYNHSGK
UniProt Q13546: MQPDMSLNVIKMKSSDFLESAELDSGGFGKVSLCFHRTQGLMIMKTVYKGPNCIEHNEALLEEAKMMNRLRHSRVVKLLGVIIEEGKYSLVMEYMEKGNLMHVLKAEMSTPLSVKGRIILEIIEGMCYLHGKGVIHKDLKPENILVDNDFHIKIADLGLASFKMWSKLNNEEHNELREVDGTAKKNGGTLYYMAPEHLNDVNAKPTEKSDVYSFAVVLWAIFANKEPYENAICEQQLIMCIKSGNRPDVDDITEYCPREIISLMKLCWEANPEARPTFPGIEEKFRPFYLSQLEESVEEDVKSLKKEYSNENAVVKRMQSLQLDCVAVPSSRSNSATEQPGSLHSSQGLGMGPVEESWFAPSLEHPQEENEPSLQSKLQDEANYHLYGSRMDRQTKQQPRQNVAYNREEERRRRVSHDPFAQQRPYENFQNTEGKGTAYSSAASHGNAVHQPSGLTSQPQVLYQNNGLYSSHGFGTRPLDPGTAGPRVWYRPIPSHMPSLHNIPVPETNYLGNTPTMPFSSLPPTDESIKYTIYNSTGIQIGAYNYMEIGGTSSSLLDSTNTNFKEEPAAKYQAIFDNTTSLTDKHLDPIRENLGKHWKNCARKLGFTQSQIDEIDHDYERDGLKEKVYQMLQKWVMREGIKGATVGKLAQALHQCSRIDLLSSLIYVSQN

These are yes or no findings as the source states them, for the method shown. Binding seen in cells or lysates may run through a third protein. Some results given as binding are weak or reduced against the parent protein; the word gives no strength. For some assays here: Sequences can lack the tags named with a protein.

In assay [1] the target is T1, Flag-HSPA13 (HT29, stable) (UniProt P48723).
T1 sequence: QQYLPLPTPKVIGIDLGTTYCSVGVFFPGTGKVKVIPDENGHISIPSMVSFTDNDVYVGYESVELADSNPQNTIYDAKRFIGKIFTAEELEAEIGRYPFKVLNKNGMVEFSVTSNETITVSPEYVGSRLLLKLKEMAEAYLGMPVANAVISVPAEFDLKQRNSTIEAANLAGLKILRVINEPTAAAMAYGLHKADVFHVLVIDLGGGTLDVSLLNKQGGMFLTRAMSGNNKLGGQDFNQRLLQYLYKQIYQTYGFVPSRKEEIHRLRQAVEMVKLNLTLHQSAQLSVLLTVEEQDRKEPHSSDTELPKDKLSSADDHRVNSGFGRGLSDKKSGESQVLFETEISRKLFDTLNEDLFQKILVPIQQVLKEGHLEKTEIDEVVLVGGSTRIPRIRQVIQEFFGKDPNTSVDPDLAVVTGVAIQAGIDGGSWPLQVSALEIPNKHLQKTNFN
Briefly: co-IP; HT29 stably expressing Flag-HSPA13, TNFα for the indicated time; IP with anti-Flag; endogenous partner detected by blot.

For assay [2], the target named is RIP3, endogenous in HT29 (human (endogenous in HT29)) (UniProt Q9Y572). Briefly: co-IP; HT29 HSPA13+/+ or HSPA13−/− treated with TNFα (20 ng/ml), 20 nM Smac mimetic and 20 μM Z-VAD (T/S/Z) for 6 hours; IP with anti-RIP3 or control IgG.

With “RIP1, endogenous in HT29 (from UniProt Q13546 1-671)”, the binding result in assay [1] and in assay [2] was “binds” in each case.
